## Screening data, single-dose tests

By UniProt entry, the sequences of proteins in these tests, tags left out. Residues count along the entry.
UniProt Q4DA54, 1-478: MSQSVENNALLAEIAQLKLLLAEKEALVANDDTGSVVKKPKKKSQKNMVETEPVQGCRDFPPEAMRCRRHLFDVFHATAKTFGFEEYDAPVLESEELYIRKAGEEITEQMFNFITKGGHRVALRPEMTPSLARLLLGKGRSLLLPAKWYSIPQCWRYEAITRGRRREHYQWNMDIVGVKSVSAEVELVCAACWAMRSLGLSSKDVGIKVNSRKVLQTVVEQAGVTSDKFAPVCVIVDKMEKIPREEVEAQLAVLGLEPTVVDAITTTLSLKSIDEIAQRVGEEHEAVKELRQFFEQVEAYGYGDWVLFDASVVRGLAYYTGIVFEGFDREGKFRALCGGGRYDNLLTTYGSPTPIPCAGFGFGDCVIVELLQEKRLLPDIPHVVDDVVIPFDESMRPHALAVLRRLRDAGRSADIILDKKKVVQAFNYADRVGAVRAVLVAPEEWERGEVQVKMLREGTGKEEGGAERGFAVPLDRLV

Measurements from “University of Dundee, Small-Polar-MMV Screening Library” (2021), ChEMBL document CHEMBL3988442.

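Histidine-tRNA ligase, Trypanosoma cruzi CL Brener (UniProt Q4DA54). Enzyme assay of histidyl-tRNA synthetase; the read-out is not stated. Tested at 30 µM. The record gives no direction; compounds that gave an IC50 in retests scored well above the rest, so higher reads as stronger inhibition. Size under these conditions: about 69,000 compounds, about 31 of them at 50% or above in at least one test.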

Each number is a percent effect as filed.
How 0% and 100% were set is not recorded. Most values in the screen are low, and negative values occur.
The compounds are a random part of those screened.

compound,effect
Cc1nnsc1CN1C[C@H]2CC[C@@H]1CN(Cc1ccccn1)C2,6.329
CC(C)NC(=O)C1CCC2(CCN(Cc3cnn(C)c3)CC2)CO1 (stereo unspecified),2.299
Cc1noc(CN2CC(=O)N(C)c3ccccc3C2=O)n1,4.255
Cc1cc(C(F)(F)F)nc(C2CCCN2S(C)(=O)=O)n1 (stereo unspecified),4.215
CC(C1CCN(Cc2cnn(C)c2C2CC2)CC1)N1CCN(C)CC1 (stereo unspecified),9.091
CCn1ncnc1CN1CCOC(Cc2cccc3ccccc23)C1 (stereo unspecified),3.784
CS(=O)(=O)c1nnc(NC(=O)CCc2cccc(Cl)c2)[nH]1,1.724
CCN(CC)C(=O)c1ccc(Cl)c(NC(=O)c2cc[nH]n2)c1,2.488
FC(F)(F)c1ccnc(N2CCC(c3nccn3CC3CC3)CC2)n1,7.826
O=C(NCC1CCOC1)c1cc(-c2ccc(Cl)cc2)n[nH]1 (stereo unspecified),9.524
CC(C)CN1C(=O)CO[C@@H]2CN(C(=O)CC(F)(F)F)C[C@H]21,7.527
CCC[C@H]1CN(S(C)(=O)=O)C[C@@H]1NC(=O)COC(C)C,2.632
CCNC(=O)N1CCC(Nc2nccc(NCC)n2)CC1,3.226
COCC(=O)NCc1cc(=O)n2c(n1)CN(Cc1ccncc1)CCC2,9.524
O=C(c1cnco1)N1CCC(Cc2cnc3ccccc3c2)CC1,9.605
CO[C@H]1CN(C(=O)c2ccc3oc(C)cc3c2)CC[C@@]12CCCO2,3.784
Cc1ccc2c(c1)SCC(=O)N2CC(=O)N1CCCC1c1nccs1 (stereo unspecified),-3.191
CCS(=O)(=O)CCN1CCCC1c1noc(C2CC2)n1 (stereo unspecified),3.759
COc1nc2ccn(CCNc3cc(C)ccn3)c(=O)c2cc1C#N,-2.041
CC(C)C[C@H](NC(=O)c1cc(-c2cccn2C)n[nH]1)C(N)=O,6.024
Cn1ccnc1CCNS(=O)(=O)Cc1cccc(C#N)c1,5.195
COc1ccc(OCCNc2cccc(C(=O)N3CCOCC3)c2)cc1,0.4484
CC(C)OCCCN(Cc1ccncc1)Cc1cc(F)ccc1F,6.716
Cc1nc(C2CCCN2Cc2nc(C)c(C)o2)no1 (stereo unspecified),1.916
Cc1ccc(CN2CCN(Cc3ccncc3)CC2=O)cc1,4.523
CN(C)CC1CN(Cc2ccc(-n3cccn3)cc2)CCO1 (stereo unspecified),1.143
CCn1cnnc1C1CCN(C(=O)Cc2ccc(OC)c(F)c2)CC1,-1.031
CN(C)Cc1ccnc(C2CCCN2Cc2ccc(F)cn2)n1 (stereo unspecified),10
CC(C)N1CCCC1c1nc(N(C)C)ncc1I (stereo unspecified),11.88
COCCn1ccnc1C1CCN(C(=O)C(O)c2ccc(F)cc2)CC1 (stereo unspecified),5.051
COc1ccccc1CC(=O)NCCCN1CCCC1C(=O)N(C)C (stereo unspecified),4.959
CCC(Oc1ccc(N(C)S(C)(=O)=O)cc1)C(=O)NC (stereo unspecified),2.128
CC(C)c1nccc([C@@H]2C[C@@H]3CCN(Cc4ccoc4)C[C@H]3O2)n1,12.4
Cc1ccccc1CN(C)Cc1nc2c(cnn2C)c(=O)[nH]1,-3.817
CN1CC(=O)N(c2cccc(F)c2)CC12CCN(Cc1ccccn1)C2 (stereo unspecified),5.376
COc1ccc(C2CC(=O)Nc3nc(N4CCOCC4)sc32)cc1 (stereo unspecified),-2.484
Cc1noc(C)c1C(=O)N1CCCCC1c1cc(C)n2ccnc2n1 (stereo unspecified),6.084
COC(=O)[C@@H]1CN(S(=O)(=O)c2ccccc2)CCN1S(C)(=O)=O,6.931
Cc1nc(NC(C)C)nc2c1CN(Cc1cccs1)CC2,2.454
O=C(CCCNC(=O)NCC1CCCO1)Nc1ccc(Cl)cc1 (stereo unspecified),9.901
CCn1cnnc1CNC(=O)NCC(C)(CC)N1CCOCC1 (stereo unspecified),-0.4926
CCCOCC1CCN(C(=O)c2cnc(C)nc2O)C1 (stereo unspecified),0.8
Cc1cc(C(=O)Nc2ccc(-c3nnc(N(C)C)o3)cc2)oc1C,7.182
Cc1cc(-c2cnc(N3CCNC(=O)C3)nc2-c2cccnc2C)on1,-0.5464
CC(=O)N(Cc1ncc(C(C)C)o1)C1CCN(Cc2ccno2)C1 (stereo unspecified),5.539
O=C(NCCNc1ccccn1)NC1CCOC2(CCCCC2)C1 (stereo unspecified),9.36
CCOc1ccc(OCc2nc3c(c(=O)[nH]2)CCNC3)cc1,10.26
c1ccc(N2CCC(NCc3cccc4cn[nH]c34)C2)cc1 (stereo unspecified),6.316
O=C(O)c1ccc(S(=O)(=O)Nc2cnn(CC(F)(F)F)c2)cc1,7.772
Cc1nc(Nc2cnccn2)cc(C2CCN(CCO)C2)n1 (stereo unspecified),8.989
COc1nccnc1N1CCC(C(=O)O)(n2ccc(C(C)(C)C)n2)CC1,2.232
c1ccc(Cc2nc(CNC3CCC4(CCNCC4)CC3)no2)cc1,15
COCCn1ccnc1CN(Cc1ccccn1)CC(C)C,2.235
Cc1ncc(-c2nc3cc(S(=O)(=O)N4CCCC4)ccc3n2C)cn1,3.306
CCc1noc(CNCC2CCCN2c2cccnn2)n1 (stereo unspecified),14.87
CC(C)CO[C@H]1CN(S(=O)(=O)c2cn(C)cn2)[C@@H]2CCCO[C@H]12,3.226
CN1CCN(C2CCN(C(C(N)=O)c3ccccc3)CC2)C1=O (stereo unspecified),4.433
COc1c(CNC2CCOc3c(F)cccc32)c(C)nn1C (stereo unspecified),1.058
NC(=O)COc1ccc(CNCc2ccc(Cl)c(F)c2)cc1,4.911
CC(=O)N1CCCC(c2ccnc(Nc3cnccn3)c2)C1 (stereo unspecified),5.303
OC1(CNCCc2csc(-c3cccnc3)n2)CCNC1 (stereo unspecified),4.741
CN(C(=O)Cc1cccs1)C1CCN(c2ccccn2)CC1,3.955
Cc1cc(Cc2ccccc2C)cc(C2CCCNC2)n1 (stereo unspecified),11.88
CCN(C)C[C@H]1CC[C@@H](Cc2ccc3c(cnn3C)c2)O1,5.419
CC(C)N1CCc2onc(Cn3cccc3)c2C1,2.299
CC(CN1CCOCC1)OC(=O)c1ccccc1I (stereo unspecified),2.484
CN(C)c1nc2c(c(N3CCC(O)CC3)n1)CN(CC(C)(C)C)CC2,3.488
CSCCC(NC(N)=O)C(=O)N1CCC(Cc2ccccc2)CC1 (stereo unspecified),7.937
Cn1cc(-c2nc(C(=O)N3CCCC3c3cnn(C)c3)cs2)cn1 (stereo unspecified),11.34

The last 4 entries again:

{"compound": "CC(CN1CCOCC1)OC(=O)c1ccccc1I", "stereo": "stereo unspecified", "effect": 2.484}
{"compound": "CN(C)c1nc2c(c(N3CCC(O)CC3)n1)CN(CC(C)(C)C)CC2", "effect": 3.488}
{"compound": "CSCCC(NC(N)=O)C(=O)N1CCC(Cc2ccccc2)CC1", "stereo": "stereo unspecified", "effect": 7.937}
{"compound": "Cn1cc(-c2nc(C(=O)N3CCCC3c3cnn(C)c3)cs2)cn1", "stereo": "stereo unspecified", "effect": 11.34}